The supplement of paper PMC3334620
The full ranking holds about 33,000 sequences; the median of “E-score (-0.5 to 0.5)” is about -8e-05, and the highest 2% start at about 0.23. The list shows a part of the results.

Each sequence was assayed against T1, Nrg2 (UniProt P38082) (assay: PBM E-score (8-mer binding enrichment) (E-score (-0.5 to 0.5)); higher = stronger / more preferred TF binding). Conditions: protein concentration: 100 nM; construct: GST-full length.
T1 sequence: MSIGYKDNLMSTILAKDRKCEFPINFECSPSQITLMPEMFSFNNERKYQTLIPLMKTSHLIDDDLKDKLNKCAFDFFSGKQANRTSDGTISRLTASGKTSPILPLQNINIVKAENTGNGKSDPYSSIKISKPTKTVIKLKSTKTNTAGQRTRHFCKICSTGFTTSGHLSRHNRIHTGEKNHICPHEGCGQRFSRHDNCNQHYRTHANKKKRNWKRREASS
In short: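 PURExpress in vitro transcription/translation supplied GST-tagged yeast transcription factors, either full-length or DNA-binding domain. Applied at about 100-200 nM to universal all-10-mer Agilent arrays double-stranded by primer extension, the bound protein was detected with fluorescent anti-GST. E-scores, modified Wilcoxon-Mann-Whitney statistics, were given by the Universal PBM Analysis Suite to ungapped eight-base words pooled with their reverse complements after masliner normalisation.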
GCGCCGGA was tested, and the “PBM E-score” value was -0.0477.
In the case of GGATCTGA, the “PBM E-score” value is reported as -0.0992.
ATTCGTCA was tested, and the “PBM E-score” value was 0.173.
For ACCCTGAC, the “PBM E-score” value was 0.334.
In the case of AGTGTGCG, the “PBM E-score” value is reported as 0.128.
CCTTAGGC was tested, and the “PBM E-score” value was -0.167.
With AGTATCTA the “PBM E-score” value was 0.2.
For ACGATTCC, the “PBM E-score” value was 0.0207.
For ATGGTGTC, the “PBM E-score” value was 0.0375.
For GTTATTGA, the “PBM E-score” value was 0.122.
In the case of ATGGTATC, the “PBM E-score” value is reported as 0.135.
CAATGGGA was tested, and the “PBM E-score” value was -0.072.
With CATAGGCA the “PBM E-score” value was -0.123.
With CGCCTAGA the “PBM E-score” value was -0.0501.
GGTCCTAA was tested, and the “PBM E-score” value was -0.0628.
For TCCCCGAA, the “PBM E-score” value was -0.0516.
With GGGAAGTA the “PBM E-score” value was 0.0865.
In the case of CAATCGCA, the “PBM E-score” value is reported as 0.133.
With ACGACTCA the “PBM E-score” value was -0.122.
In the case of CGCCCACG, the “PBM E-score” value is reported as -0.0862.
In the case of CCGCTGTA, the “PBM E-score” value is reported as -0.0218.
GACGCATC was tested, and the “PBM E-score” value was -0.0555.
With TTAATTAA the “PBM E-score” value was 0.198.
In the case of ATGGGCCG, the “PBM E-score” value is reported as -0.0605.
GTCACTTA was tested, and the “PBM E-score” value was 0.147.
AAGATTAT was tested, and the “PBM E-score” value was 0.0533.
GATTATTA was tested, and the “PBM E-score” value was 0.0599.
With AATTTAGA the “PBM E-score” value was 0.0528.
For TAATACAA, the “PBM E-score” value was 0.235.
For CCGGGTCC, the “PBM E-score” value was -0.171.
In the case of TTCTACAA, the “PBM E-score” value is reported as 0.11.
In the case of GTTGCAGA, the “PBM E-score” value is reported as 0.0197.
With TCCCTTAA the “PBM E-score” value was 0.106.
In the case of TAGGTATA, the “PBM E-score” value is reported as 0.121.
With CCGTATTA the “PBM E-score” value was 0.047.
In the case of GAATGGAC, the “PBM E-score” value is reported as 0.0299.
AAATATGC was tested, and the “PBM E-score” value was 0.0185.
In the case of CCAACCGC, the “PBM E-score” value is reported as 0.159.
In the case of AAATCCCA, the “PBM E-score” value is reported as -0.0938.
TCCGCCCA was tested, and the “PBM E-score” value was -0.0972.
With GGTGGCTA the “PBM E-score” value was -0.0197.
For ATAAGCCG, the “PBM E-score” value was -0.0617.
GCGTTCAA was tested, and the “PBM E-score” value was -0.04.
For CTTAAATC, the “PBM E-score” value was -0.0502.
For TCAAGTAA, the “PBM E-score” value was -0.0497.
CTCGTTCA was tested, and the “PBM E-score” value was 0.0156.
For TGGCAAAA, the “PBM E-score” value was 0.0813.
CCTAAAAA was tested, and the “PBM E-score” value was -0.00277.
With ATCCCAGG the “PBM E-score” value was -0.0419.
CCAGTTAC was tested, and the “PBM E-score” value was -0.146.
With ACGAAGTG the “PBM E-score” value was 0.064.
For ACCAGACT, the “PBM E-score” value was -0.148.
With ACAATTAT the “PBM E-score” value was -0.00765.
ATTTGTGG was tested, and the “PBM E-score” value was 0.204.
ATCAACTG was tested, and the “PBM E-score” value was 0.086.
For ACAGCCTA, the “PBM E-score” value was 0.133.
GCCGTTAA was tested, and the “PBM E-score” value was 0.0444.
With AAGAGGTC the “PBM E-score” value was 0.0167.
For CTTTGCAC, the “PBM E-score” value was 0.00168.
With ACATAGCG the “PBM E-score” value was -0.0626.
GCATCCTA was tested, and the “PBM E-score” value was -0.0981.
For CAGGAGAC, the “PBM E-score” value was 0.0108.
CCCCTATC was tested, and the “PBM E-score” value was 0.0154.
In the case of AGTCCGTA, the “PBM E-score” value is reported as -0.156.
In the case of GAAGAGCC, the “PBM E-score” value is reported as -0.103.
For ATATAGTG, the “PBM E-score” value was 0.241.
For ACTCGCAC, the “PBM E-score” value was -0.0805.
ACCGCACG was tested, and the “PBM E-score” value was -0.00283.
In the case of AATGTTCC, the “PBM E-score” value is reported as 0.0459.
For GTTCACTA, the “PBM E-score” value was -0.0719.
With CAATTGCG the “PBM E-score” value was 0.133.
CCCGTCGG was tested, and the “PBM E-score” value was -0.16.
For GCCCCAAC, the “PBM E-score” value was 0.126.
In the case of AGGTCATC, the “PBM E-score” value is reported as -0.1.
With GAAGAGCA the “PBM E-score” value was -0.175.
In the case of ACGCGCAC, the “PBM E-score” value is reported as -0.0011.
In the case of CTTGCTTA, the “PBM E-score” value is reported as -0.0295.
For CCACGCAA, the “PBM E-score” value was -0.0726.
With CAAGAGCA the “PBM E-score” value was -0.0163.
For ATCCACCA, the “PBM E-score” value was -0.122.
GAAAAGGC was tested, and the “PBM E-score” value was -0.168.
For ATATGCCA, the “PBM E-score” value was 0.137.
For AACCCGGT, the “PBM E-score” value was -0.00724.
With TACACCGA the “PBM E-score” value was -0.14.
In the case of TCAACAAA, the “PBM E-score” value is reported as 0.118.
With GTGCCTGA the “PBM E-score” value was -0.18.
In the case of AACACATA, the “PBM E-score” value is reported as 0.113.
In the case of ACACGGTA, the “PBM E-score” value is reported as 0.00247.
For ACAACGGT, the “PBM E-score” value was -0.0246.
For TAGCTGCA, the “PBM E-score” value was -0.131.
ATATGGGC was tested, and the “PBM E-score” value was 0.129.
AAACGATG was tested, and the “PBM E-score” value was 0.0505.
CCACCGAC was tested, and the “PBM E-score” value was 0.0138.
In the case of AATCCTGC, the “PBM E-score” value is reported as -0.00651.
In the case of AAAGAGAT, the “PBM E-score” value is reported as -0.0209.
TACAGATA was tested, and the “PBM E-score” value was 0.0235.
For AGAATGAA, the “PBM E-score” value was 0.126.
In the case of AGACGGTA, the “PBM E-score” value is reported as 0.00245.
For TCGGCTAA, the “PBM E-score” value was 0.028.
For TAGTTGGA, the “PBM E-score” value was 0.0485.
In the case of AACCCGTT, the “PBM E-score” value is reported as 0.00318.
In the case of GCTCAGAC, the “PBM E-score” value is reported as -0.0262.
CACCCAGC was tested, and the “PBM E-score” value was -0.224.
ACTCGAGT was tested, and the “PBM E-score” value was 0.132.
In the case of AAAACGGG, the “PBM E-score” value is reported as 0.17.
With AGGCAGCC the “PBM E-score” value was -0.0143.
With AATTGGGG the “PBM E-score” value was -0.0654.
In the case of GAAGCTCA, the “PBM E-score” value is reported as -0.0105.
CGCCTCCC was tested, and the “PBM E-score” value was -0.353.
With ACTACAGG the “PBM E-score” value was 0.237.
For CAGAGGGC, the “PBM E-score” value was -0.201.
With ACTCGGAC the “PBM E-score” value was 0.0898.
In the case of CTACCAGC, the “PBM E-score” value is reported as -0.165.
For ATGACGAA, the “PBM E-score” value was 0.0839.
In the case of ACTAAGCT, the “PBM E-score” value is reported as -0.0663.
For CACCACCG, the “PBM E-score” value was -0.145.
With AGACTGCC the “PBM E-score” value was -0.0787.
In the case of AGCCAGTC, the “PBM E-score” value is reported as -0.183.
CCGTGGGC was tested, and the “PBM E-score” value was -0.114.
AGAAGCGG was tested, and the “PBM E-score” value was -0.182.
AGTATGAA was tested, and the “PBM E-score” value was 0.254.
In the case of AGTTTGAG, the “PBM E-score” value is reported as 0.0901.
GCAGTCGC was tested, and the “PBM E-score” value was -0.0122.
GGCCGTGA was tested, and the “PBM E-score” value was 0.0393.
With ATAGGGGA the “PBM E-score” value was 0.0531.
With GACGTTGC the “PBM E-score” value was 0.00555.
In the case of ATATGCGC, the “PBM E-score” value is reported as 0.209.
ATATCATA was tested, and the “PBM E-score” value was 0.174.
ATGAGGCA was tested, and the “PBM E-score” value was 0.00433.
CATCCAAC was tested, and the “PBM E-score” value was 0.0443.
With CTTATAGC the “PBM E-score” value was -0.0991.
In the case of AGGTACCC, the “PBM E-score” value is reported as -0.0334.
AAGTCCCC was tested, and the “PBM E-score” value was -0.117.
For CTATGAGC, the “PBM E-score” value was -0.246.
CATAGTAG was tested, and the “PBM E-score” value was 0.208.
With AAGTACGG the “PBM E-score” value was -0.0568.
TAGCTAGA was tested, and the “PBM E-score” value was -0.0761.
In the case of GAGGGTGA, the “PBM E-score” value is reported as -0.0277.
For AACCCGGG, the “PBM E-score” value was 0.255.
For GAACAACC, the “PBM E-score” value was 0.157.
For CACGACTC, the “PBM E-score” value was -0.0132.
AATGCCGC was tested, and the “PBM E-score” value was 0.096.
In the case of CGGCACCG, the “PBM E-score” value is reported as -0.00089.
With CAAACTTG the “PBM E-score” value was 0.00038.
With ATTGTAAG the “PBM E-score” value was -0.226.
In the case of CAATGCTC, the “PBM E-score” value is reported as -0.127.
AACTGGCG was tested, and the “PBM E-score” value was 0.0501.
In the case of AAGGTAAT, the “PBM E-score” value is reported as 0.0937.
In the case of CTACCTAG, the “PBM E-score” value is reported as -0.0659.
With CGAGGGAC the “PBM E-score” value was -0.0161.
For GATGTCGA, the “PBM E-score” value was 0.0615.
CTAAGCCC was tested, and the “PBM E-score” value was -0.219.
With TAGGAGCA the “PBM E-score” value was -0.0909.
In the case of AGTTTGCG, the “PBM E-score” value is reported as 0.0795.
For AATATTTC, the “PBM E-score” value was 0.21.
CGATCGTA was tested, and the “PBM E-score” value was 0.0872.
In the case of AAGAATGG, the “PBM E-score” value is reported as 0.0626.
CTGCCCTA was tested, and the “PBM E-score” value was -0.0551.
ACCCTGTG was tested, and the “PBM E-score” value was 0.289.
For CCCGGTTA, the “PBM E-score” value was -0.197.
ATACTCCA was tested, and the “PBM E-score” value was 0.111.
In the case of GCAGCCAC, the “PBM E-score” value is reported as 0.00093.
For CGAACTCA, the “PBM E-score” value was 0.00924.
With CGGCCGCA the “PBM E-score” value was 0.0157.
For AAACCAGT, the “PBM E-score” value was -0.0961.
With CAATCTCA the “PBM E-score” value was -0.042.
With AAACGCGT the “PBM E-score” value was 0.0519.
In the case of GCGGTTCC, the “PBM E-score” value is reported as -0.173.
In the case of AACTCCAT, the “PBM E-score” value is reported as 0.114.
For GATTCTAC, the “PBM E-score” value was -0.0847.
With GTGATTAA the “PBM E-score” value was 0.0746.
In the case of AAAAGTCG, the “PBM E-score” value is reported as 0.0204.
